“And” between values parts separate entries of the source, which are not always exact repeats. Equal values may be shown once. Only results without a clear call are listed here; the source files them as inconclusive. Unless noted, calls follow the shape of the dose curve; as a rule, active = well fitted curve in the direction sought with a large enough effect; inconclusive = small, poorly fitted or top-dose-only effect, or another doubt; inactive = no such curve, though single readings can be large; an effect the other way counts as inactive or inconclusive.
How the values were obtained:
[1] = qHTS of pediatric cancer cell lines to identify multiple opportunities for drug repurposing: Confirmatory screen for SK-N-SH cells (AID 1347129); conditions: SK-N-SH neuroblastoma cell viability;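 also: potency is read from the fitted curve at half-maximal effect; cells exposed to compound for 48 h before viability read; nearly all actives have a fitted effect of over 60% in size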
How it was run: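 Viability after 48 h compound treatment at 37C, 500-1,000 cells/well, read as ATP luminescence with CellTiter-Glo. Primary screens used 11-point (MIPE, 0.78 nM-46 µM) or 8-point (NPC, 0.59 nM-46 µM) final concentrations; follow-up screens used 11-point dilutions.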

[2] = qHTS to identify inhibitors of the type 1 interferon - major histocompatibility complex class I in skeletal muscle: primary screen against the NCATS Mechanism Interrogation Plate v5.0 (MIPE) Libary (AID 1347411); conditions: iHSKM cells + IFN-b, HiBiT-tagged MHC-I luminescence, 24 h; also: potency is read from the fitted curve at half-maximal effect; nearly all actives have a fitted effect of over 65% in size
How it was run: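 Cells were genome-edited human myoblasts carrying a HiBit tag on endogenous HLA-B. They were treated with IFN-beta (4.0 ng/ml) and titrated compounds (top 46 uM) for 24 hrs before lytic HiBiT detection.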

[3] = Primary qHTS for inhibitors of SARS-S pseudo-typed particle cell entry (AID 1479145; calls by dose curve; also: nearly all actives have a fitted effect of over 45% in size); conditions: SARS-S pseudotyped particle cell entry, luciferase reporter
[4] = A High-Content qHTS Against Drug Library for the Identification of Small Molecules that Inhibit DYT1 Early Onset Primary Dystonia-Associated Cell Pathology (AID 1645839; calls by dose curve; also: potency is read from the fitted curve at half-maximal effect); conditions: HEK293 Flp-In EGFP-delE TorsinA, punctate imaging, 48 h
How it was run: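 Flp-In T-REx 293 cells with tetracycline-inducible EGFP-delE hTOR1A (WT EGFP-hTOR1A as reference), 800 cells/well; compound added with tetracycline, 48 h at 37 C. Fixed, permeabilized cells imaged; %pathology (punctate TorsinA) primary, cell count counterscreen.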

[5] = Primary qHTS for inhibitors of nuclear receptor binding SET domain protein 2 (NSD2) in an isogenic RCH-ACV NSD2 p.E1099K mutant (9B) (AID 1645876); conditions: RCH-ACV (leukaemia line) NSD2 E1099K (9B) viability, CellTiter-Glo, 72 h; also: potency is read from the fitted curve at half-maximal effect; nearly all actives have a fitted effect of over 70% in size
[6] = Quantitative High-Throughput drug screen in 47 multiple myeloma cell lines against the NCATS MIPE library collection: FR4_PLB cell viability assay (AID 1918924; also: potency is read from the fitted curve at half-maximal effect; nearly all actives have a fitted effect of over 35% in size); conditions: FR4_PLB myeloma cells viability, CellTiter-Glo ATP, 48 h
How it was run: (§1)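 Inhibition of cell viability is measured here. Each line was plated at 500 cells per well, treated with MIPE 4.0 drugs, kept 48 hours at 37C, then assayed for ATP content by CellTiter-Glo luminescence.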

[7] = Quantitative High-Throughput drug screen in 47 multiple myeloma cell lines against the NCATS MIPE library collection: Delta47_JCRB cell viability assay (AID 1918925; also: potency is read from the fitted curve at half-maximal effect; nearly all actives have a fitted effect of over 45% in size); conditions: Delta47 myeloma viability, CellTiter-Glo ATP, 48 h
How it was run: (§2)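 Approved and investigational drugs from MIPE 4.0 were added by pin tool to 500 cells per well. After 48 hours at 37C, ATP-based CellTiter-Glo luminescence indicated remaining viability.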

[8] = Quantitative High-Throughput drug screen in 47 multiple myeloma cell lines against the NCATS MIPE library collection: KHM11_PLB cell viability assay (AID 1918962); conditions: KHM11 myeloma cell viability, CellTiter-Glo ATP luminescence, 48 h; also: potency is read from the fitted curve at half-maximal effect; nearly all actives have a fitted effect of over 35% in size
How it was run: as §1

[9] = Quantitative High-Throughput drug screen in 47 multiple myeloma cell lines against the NCATS MIPE library collection: KMS12BM_JCRB cell viability assay (AID 1918971); conditions: KMS12BM myeloma viability, CellTiter-Glo ATP, 48 h; also: potency is read from the fitted curve at half-maximal effect; nearly all actives have a fitted effect of over 35% in size
How it was run: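 Myeloma cells (500 per well) were exposed to MIPE 4.0 compounds by pin transfer and incubated 48 hours at 37C, 5% CO2. Viability was read as ATP by CellTiter-Glo luminescence, normalised to DMSO (100%) and media-only (0%) wells.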

[10] = Quantitative High-Throughput drug screen in 47 multiple myeloma cell lines against the NCATS MIPE library collection: KMS21BM_JCRB cell viability assay (AID 1918974); conditions: ATP luminescence, 48 h; also: potency is read from the fitted curve at half-maximal effect
How it was run: as §2

[11] = Quantitative High-Throughput drug screen in 47 multiple myeloma cell lines against the NCATS MIPE library collection: MMM1_PLB cell viability assay (AID 1918976); conditions: MM.1S-type MMM1 myeloma cells viability, CellTiter-Glo, 48 h; also: potency is read from the fitted curve at half-maximal effect; nearly all actives have a fitted effect of over 35% in size
How it was run: (§3)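 Viability after 48 h drug exposure was measured as ATP-dependent luminescence. Cells, 500 per well, sat at 37 °C under 5% CO2; DMSO wells set 100%, media-only wells 0%.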

[12] = Quantitative High-Throughput drug screen in 47 multiple myeloma cell lines against the NCATS MIPE library collection: MOLP8_DSMZ cell viability assay (AID 1918977); conditions: MOLP8 myeloma viability, CellTiter-Glo ATP luminescence, 48 h; also: potency is read from the fitted curve at half-maximal effect; nearly all actives have a fitted effect of over 45% in size
How it was run: as §3

[13] = Quantitative High-Throughput drug screen in 47 multiple myeloma cell lines against the NCATS MIPE library collection: NCIH929_DSMZ cell viability assay (AID 1918978); conditions: NCI-H929 myeloma viability, CellTiter-Glo ATP, 48 h
How it was run: as §3

[14] = Quantitative High-Throughput drug screen in 47 multiple myeloma cell lines against the NCATS MIPE library collection: MM1S_ATCC cell viability assay (AID 1918980); conditions: MM1S myeloma viability, CellTiter-Glo ATP luminescence, 48 h; also: potency is read from the fitted curve at half-maximal effect; nearly all actives have a fitted effect of over 45% in size
How it was run: as §3

[15] = Quantitative High-Throughput drug screen in 47 multiple myeloma cell lines against the NCATS MIPE library collection: KMS28PE_JCRB cell viability assay (AID 1918983); conditions: KMS28PE multiple myeloma viability, CellTiter-Glo ATP, 48 h
How it was run: as §3

[16] = Quantitative High-Throughput drug screen in 47 multiple myeloma cell lines against the NCATS MIPE library collection: KMS34_JCRB cell viability assay (AID 1918985); conditions: KMS34 myeloma viability, CellTiter-Glo ATP luminescence, 48 h; also: potency is read from the fitted curve at half-maximal effect; nearly all actives have a fitted effect of over 40% in size
How it was run: as §3

[17] = Quantitative High-Throughput drug screen in 47 multiple myeloma cell lines against the NCATS MIPE library collection: OPM1_PLB cell viability assay (AID 1918989); conditions: CellTiter-Glo, 48 h; also: potency is read from the fitted curve at half-maximal effect; nearly all actives have a fitted effect of over 40% in size
How it was run: as §3

[18] = Quantitative High-Throughput drug screen in 47 multiple myeloma cell lines against the NCATS MIPE library collection: SKMM1_PLB cell viability assay (AID 1919863); conditions: SKMM1 myeloma viability, CellTiter-Glo ATP, 48 h
How it was run: as §3

[19] = Quantitative High-Throughput drug screen in 47 multiple myeloma cell lines against the NCATS MIPE library collection: U266_ATCC cell viability assay (AID 1919864); conditions: U266 myeloma viability, CellTiter-Glo ATP luminescence, 48 h
How it was run: as §3

[20] = Quantitative High-Throughput drug screen in 47 multiple myeloma cell lines against the NCATS MIPE library collection: RPMI8226_ATCC cell viability assay (AID 1919871); conditions: RPMI8226 myeloma viability, CellTiter-Glo ATP luminescence, 48 h; also: potency is read from the fitted curve at half-maximal effect; nearly all actives have a fitted effect of over 30% in size
How it was run: as §3

[21] = Quantitative High-Throughput drug screen in 47 multiple myeloma cell lines against the NCATS MIPE library collection: OPM2_DSMZ cell viability assay (AID 1919872); conditions: OPM2 myeloma viability, CellTiter-Glo ATP luminescence, 48 h; also: potency is read from the fitted curve at half-maximal effect; nearly all actives have a fitted effect of over 30% in size
How it was run: as §2

[22] = Quantitative High-Throughput drug screen in 47 multiple myeloma cell lines against the NCATS MIPE library collection: KMS11_JCRBsus cell viability assay (AID 1919873); conditions: KMS11 myeloma viability, CellTiter-Glo ATP luminescence, 48 h; also: potency is read from the fitted curve at half-maximal effect; nearly all actives have a fitted effect of over 50% in size
How it was run: as §3

[23] = Quantitative High-Throughput drug screen in 47 multiple myeloma cell lines against the NCATS MIPE library collection: KMS28BM_JCRB cell viability assay (AID 1919874); conditions: CellTiter-Glo ATP, 48 h
How it was run: as §3

3D7 = experiment: qHTS profiling for inhibitors of Plasmodium falciparum proliferation (AID 504749); also: potency is read from the fitted curve at half-maximal effect; nearly all actives have a fitted effect of over 60% in size; conditions: P. falciparum in erythrocytes, SYBR Green DNA, 72 h
How it was run: (§4)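 Readout was DNA-dye fluorescence from lysed cultures, ex 485/em 535 nm. Parasitized red cells had grown 72 h with compound; data scaled between 0.29 uM artemisinin and DMSO wells and corrected using vehicle-only plates.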

AS120 = experiment: as above; conditions: P. falciparum in erythrocytes, SYBR Green DNA, 72 h
How it was run: as §4

CP286 = experiment: as above; conditions: P. falciparum in erythrocytes, SYBR Green DNA, 72 h
How it was run: as §4

CP291 = experiment: as above; conditions: P. falciparum in erythrocytes, SYBR Green DNA, 72 h
How it was run: as §4

CP335 = experiment: as above; conditions: P. falciparum in erythrocytes, SYBR Green DNA, 72 h
How it was run: as §4

Dd2 = experiment: as above; conditions: P. falciparum in erythrocytes, SYBR Green DNA, 72 h
How it was run: as §4

W2 = experiment: as above; conditions: P. falciparum in erythrocytes, SYBR Green DNA, 72 h
How it was run: as §4

MKL-1 = experiment: qHTS assay to identify novel small-molecules to repurpose for Merkel cell carcinoma treatment (AID 1296009); conditions: MCC and control cell lines, CellTiter-Glo viability, 72 h; also: potency is read from the fitted curve at half-maximal effect; nearly all actives have a fitted effect of over 60% in size
How it was run: (§5)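 Cells were incubated with compound for 72 hr at 37 degree celsius before CellTiter-Glo addition. Luminescence was normalized with no-cell wells as full cytotoxicity and DMSO as baseline.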

MKL-2 = experiment: as above; conditions: MCC and control cell lines, CellTiter-Glo viability, 72 h
How it was run: as §5

UISO = experiment: as above; conditions: MCC and control cell lines, CellTiter-Glo viability, 72 h
How it was run: as §5

WaGa = experiment: as above; conditions: MCC and control cell lines, CellTiter-Glo viability, 72 h
How it was run: as §5

[24] = Drug repurposing screens with cells derived from glioblastoma tumor samples (AID 1345199); conditions: GBM patient neurospheres viability, ATP luminescence, 48 h; tumour line D; also: potency is read from the fitted curve at half-maximal effect; nearly all actives have a fitted effect of over 40% in size
How it was run: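 Four patient lines of CD133+ GBM neurospheres were screened at several concentrations; hits were retested in those lines plus three slower-growing GBM lines, using 48-hour treatment and ATP-based viability.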

Measured: Potency

CN(CCCl)CCCl
inconclusive: [1] 26.4 µM | [2] 46.6 µM | [3] | [4] 35.5 µM | [5] 9.44 µM and 26.3 µM | [6] 29.6 µM | [7] 29.6 µM | [8] 37.2 µM | [9] 0.0012 µM | [10] 1.87 µM | [11] 37.2 µM | [12] 33.2 µM | [13] 33.2 µM | [14] 33.2 µM | [15] 33.2 µM | [16] 0.001 µM | [17] 33.2 µM | [18] 37.2 µM | [19] 33.2 µM | [20] 37.2 µM | [21] 23.5 µM | [22] 33.2 µM | [23] 33.2 µM | 3D7 = 17.8 µM | AS120 = 11.2 µM | CP286 = 11.2 µM | CP291 = 10.7 µM | CP335 = 19 µM | Dd2 = 17.8 µM | W2 = 13.5 µM | MKL-1 = 29.9 µM | MKL-2 = 23.7 µM | UISO 33.5 µM | WaGa 26.6 µM | [24] 11.2 µM
